Measurements from patent US20170319655A1.
Results are given in words; binding and its absence hold for the method and conditions named. Some entries that bind do so weakly or less than the wild type. Sequences can lack the tags named with a protein.

Protein sequences, listed by entry. Tags and fused reporters are not part of them. Lines headed by an entry give the natural chain unless they say otherwise; changes in a name come on top.
UniProt P15941: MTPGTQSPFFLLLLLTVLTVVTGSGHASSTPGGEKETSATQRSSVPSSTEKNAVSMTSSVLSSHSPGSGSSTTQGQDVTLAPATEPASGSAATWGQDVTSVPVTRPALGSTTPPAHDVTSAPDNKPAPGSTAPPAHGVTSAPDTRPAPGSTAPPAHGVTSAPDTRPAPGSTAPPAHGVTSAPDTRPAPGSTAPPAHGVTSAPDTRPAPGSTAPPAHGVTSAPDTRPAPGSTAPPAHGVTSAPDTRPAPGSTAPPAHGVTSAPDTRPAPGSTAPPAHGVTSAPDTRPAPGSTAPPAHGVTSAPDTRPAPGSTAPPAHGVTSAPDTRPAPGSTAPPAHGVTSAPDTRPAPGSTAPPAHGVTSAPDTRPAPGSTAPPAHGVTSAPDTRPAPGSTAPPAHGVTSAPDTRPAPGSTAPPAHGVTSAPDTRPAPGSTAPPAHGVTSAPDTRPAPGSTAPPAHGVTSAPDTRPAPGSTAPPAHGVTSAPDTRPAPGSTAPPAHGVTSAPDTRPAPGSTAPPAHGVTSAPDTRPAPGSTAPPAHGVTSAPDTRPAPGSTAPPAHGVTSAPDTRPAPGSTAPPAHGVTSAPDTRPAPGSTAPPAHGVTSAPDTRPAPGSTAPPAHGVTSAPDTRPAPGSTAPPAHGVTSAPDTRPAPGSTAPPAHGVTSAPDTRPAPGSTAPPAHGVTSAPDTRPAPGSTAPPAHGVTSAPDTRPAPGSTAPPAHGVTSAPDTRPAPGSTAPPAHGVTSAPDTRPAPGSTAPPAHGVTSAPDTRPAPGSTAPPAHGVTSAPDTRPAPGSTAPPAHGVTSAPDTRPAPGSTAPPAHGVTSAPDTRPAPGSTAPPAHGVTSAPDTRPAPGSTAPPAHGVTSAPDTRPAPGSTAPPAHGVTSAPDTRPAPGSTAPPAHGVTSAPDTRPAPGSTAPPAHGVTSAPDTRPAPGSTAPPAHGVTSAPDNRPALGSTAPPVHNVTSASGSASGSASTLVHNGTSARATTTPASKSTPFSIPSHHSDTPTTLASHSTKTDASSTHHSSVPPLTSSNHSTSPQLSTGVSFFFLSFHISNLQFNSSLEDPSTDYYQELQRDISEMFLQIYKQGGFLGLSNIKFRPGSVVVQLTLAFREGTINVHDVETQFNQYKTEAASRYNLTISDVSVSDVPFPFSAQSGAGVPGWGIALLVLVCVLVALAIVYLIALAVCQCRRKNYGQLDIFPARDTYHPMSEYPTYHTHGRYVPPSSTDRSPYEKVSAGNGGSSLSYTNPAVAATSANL

Tests used:
[1] = molecular target: MUC1-ED on Ad-GFP-infected airway epithelial cells (A549 cells; SAECs) (human) (UniProt P15941); assay: Alexa Fluor 594-flagellin binding to A549 cells, fluorometry
[2] = molecular target: MUC1-ED on Ad-NEU1-infected airway epithelial cells (A549 cells; SAECs), desialylated by overexpressed NEU1 (human) (UniProt P15941); assay: as above
[3] = molecular target: MUC1-ED on Ad-NEU1-infected airway epithelial cells (A549 cells; SAECs), desialylated by overexpressed NEU1 (human) (UniProt P15941); assay: Alexa Fluor 594-flagellin binding to A549 cells, Scatchard transformation

Measured: binding

B1: Pseudomonas aeruginosa (Pa) flagellin purified from Pa strain PA01, Alexa Fluor 594-labeled (ligand)
chain: MALTVNTNIASLNTQRNLNASSNDLNTSLQRLTTGYRINSAKDDAAGLQISNRLSNQISGLNVATRNANDGISLAQTAEGALQQSTNILQRIRDLALQSANGSNSDADRAALQKEVAAQQAELTRISDTTTFGGRKLLDGSFGTTSFQVGSNAYETIDISLQNASASAIGSYQVGSNGAGTVASVAGTATASGIASGTVNLVGGGQVKNIAIAAGDSAKAIAEKMDGAIPNLSARARTVFTADVSGVTGGSLNFDVTVGSNTVSLAGVTSTQDLADQLNSNSSKLGITASINDKGVLTITSATGENVKFGAQTGTATAGQVAVKVQGSDGKFEAAAKNVVAAGTAATTTIVTGYVQLNSPTAYSVSGTGTQASQVFGNASAAQKSSVASVDISTADGAQNAIAVVDNALAAIDAQRADLGAVQNRFKNTIDNLTNISENATNARSRIKDTDFAAETAALSKNQVLQQAGTAILAQANQLPQAVLSLLR
modifications: Alexa Fluor 594 label (site not stated)
binds: all assays above
